According to patent US20160369115A1, “POLARIZING PLATE COMPOSITION, POLARIZING PLATE PROTECTIVE FILM, POLARIZER, POLARIZING PLATE, LIQUID CRYSTAL DISPLAY DEVICE, AND COMPOUND USED IN THE LIQUID CRYSTAL DISPLAY DEVICE” (FUJIFILM Corporation, priority 2014, published 2016):

Legend:
[1] = Bleed-out properties in polarizer (haze evaluation); details: haze of polarizing plate; additive in polarizer, added amount 1.0 per 100 parts by mass of polyvinyl alcohol resin
[2] = Evaluation of durability of polarizing plate, additive in polarizer (Example 2); details: added amount 1.0 per 100 parts by mass of polyvinyl alcohol resin, 410 nm
[3] = Evaluation of durability of polarizing plate, additive in adhesive layer (Example 3); details: added amount 10.0 per 100 parts by mass of the polyvinyl alcohol resin, film thickness 5 μm; for Durability of polarizer: amount of change of orthogonal transmittance (%) 60° C., 95%, 500 hours / Durability of polarizer: amount of change of orthogonal transmittance (%) 60° C., 95%, 1,000 hours / Durability of polarizer: amount of change of orthogonal transmittance (%) 80° C., Dry 500 hours / Durability of polarizer: amount of change of orthogonal transmittance (%) 80° C., Dry, 1,000 hours: 410 nm

| SMILES | Bleed out [1] | Durability of polarizer: amount of change of degree of polarization (%) 60° C., 95%, 500 hours [2] | Durability of polarizer: amount of change of degree of polarization (%) 60° C., 95%, 1,000 hours [2] | Durability of polarizer: amount of change of degree of polarization (%) 80° C., Dry, 500 hours [2] | Durability of polarizer: amount of change of degree of polarization (%) 80° C., Dry, 1,000 hours [2] | Durability of polarizer: amount of change of orthogonal transmittance (%) 60° C., 95%, 500 hours [2] | Durability of polarizer: amount of change of orthogonal transmittance (%) 60° C., 95%, 1,000 hours [2] | Durability of polarizer: amount of change of orthogonal transmittance (%) 80° C., Dry 500 hours [2] | Durability of polarizer: amount of change of orthogonal transmittance (%) 80° C., Dry, 1,000 hours [2] | Durability of polarizer: amount of change of degree of polarization (%) 60° C., 95%, 500 hours [3] | Durability of polarizer: amount of change of degree of polarization (%) 60° C., 95%, 1,000 hours [3] | Durability of polarizer: amount of change of degree of polarization (%) 80° C., Dry, 500 hours [3] | Durability of polarizer: amount of change of degree of polarization (%) 80° C., Dry, 1,000 hours [3] | Durability of polarizer: amount of change of orthogonal transmittance (%) 60° C., 95%, 500 hours [3] | Durability of polarizer: amount of change of orthogonal transmittance (%) 60° C., 95%, 1,000 hours [3] | Durability of polarizer: amount of change of orthogonal transmittance (%) 80° C., Dry 500 hours [3] | Durability of polarizer: amount of change of orthogonal transmittance (%) 80° C., Dry, 1,000 hours [3] |
| --- | --- | --- | --- | --- | --- | --- | --- | --- | --- | --- | --- | --- | --- | --- | --- | --- | --- |
| O.O.O.O.O.O.O.O=S(=O)([O-])[O-].[Zn+2] [ZnSO4•7H2O, reference compound] | A (The haze was less than 0.3%.) | B (The amount of change of the orthogonal transmittance before and after the elapse of time was equal to or greater than 2.0% and less than 3.0%.) | B (The amount of change of the degree of polarization before and after the elapse of time was equal to or greater than 4.0% and less than 6.0%.) | A (The amount of change of the degree of polarization before and after the elapse of time was equal to or greater than 0.05% and less than 1.0%.) | A (The amount of change of the degree of polarization before and after the elapse of time was equal to or greater than 0.1% and less than 2.0%.) | B (The amount of change of the orthogonal transmittance before and after the elapse of time was equal to or greater than 0.4% and less than 0.8%.) | B (The amount of change of the orthogonal transmittance before and after the elapse of time was equal to or greater than 1.0% and less than 1.6%.) | A (The amount of change of the orthogonal transmittance before and after the elapse of time was equal to or greater than 0.05% and less than 0.1%.) | A (The amount of change of the orthogonal transmittance before and after the elapse of time was equal to or greater than 0.1% and less than 0.3%.) | B (The amount of change of the degree of polarization before and after the elapse of time was equal to or greater than 2.0% and less than 3.0%.) | B (The amount of change of the degree of polarization before and after the elapse of time was equal to or greater than 4.0% and less than 6.0%.) | A (The amount of change of the degree of polarization before and alter the elapse of time was equal to or greater than 0.05% and less than 1.0%.) | A (The amount of change of the degree of polarization before and after the elapse of time was equal to or greater than 0.1% and less than 2.0%.) | B (The amount of change of the orthogonal transmittance before and after the elapse of time was equal to or greater than 0.4% and less than 0.8%.) | B (The amount of change of the orthogonal transmittance before and after the elapse of time was equal to or greater than 1.0% and less than 1.6%.) | A (The amount of change of the orthogonal transmittance before and after the elapse of time was equal to or greater than 0.05% and less than 0.1%.) | A (The amount of change of the orthogonal transmittance before and after the elapse of time was equal to or greater than 0.1% and less than 0.3%.) |
| COC(=O)Oc1[nH]c(=O)n(Cc2ccc(S(=O)(=O)[O-])cc2)c(=O)c1C=O.[Na+] [Example compound AAV] | A (The haze was less than 0.3%.) | A+ (The amount of change of the degree of polarization before and after the elapse of time was less than 0.05%.) | A+ (The amount of change of the degree of polarization before and after the elapse of time was less than 1.0%.) | A+ (The amount of change of the degree of polarization before and after the elapse of time was less than 0.05%.) | A+ (The amount of change of the degree of polarization before and after the elapse of time was less than 0.1%.) | A+ (The amount of change of the orthogonal transmittance before and after the elapse of time was less than 0.1%.) | A+ (The amount of change of the orthogonal transmittance before and after the elapse of time was less than 0.5%.) | A+ (The amount of change of the orthogonal transmittance before and after the elapse of time was less than 0.05%.) | A+ (The amount of change of the orthogonal transmittance before and after the elapse of time was less than 0.1%.) | A+ (The amount of change of the degree of polarization before and after the elapse of time was less than 0.05%.) | A+ (The amount of change of the degree of polarization before and after the elapse of time was less than 1.0%.) | A+ (The amount of change of the degree of polarization before and after the elapse of time was less than 0.05%.) | A+ (The amount of change of the degree of polarization before and after the elapse of time was less than 0.1%.) | A+ (The amount of change of the orthogonal transmittance before and after the elapse of time was less than 0.1%.) | A+ (The amount of change of the orthogonal transmittance before and after the elapse of time was less than 0.5%.) | A+ (The amount of change of the orthogonal transmittance before and after the elapse of time was less than 0.05%.) | A+ (The amount of change of the orthogonal transmittance before and after the elapse of time was less than 0.1%.) |
